Measured values from PMC5028754.
Results are given in words; binding and its absence hold for the method and conditions named. Tags and fused reporters may be left off the sequences shown.

B1: Yeast Ufo1 UIM1-4 (residues 512-668) (domain or fragment, UniProt Q04511 512-668)
chain: GDTDEENDIQLRIALLESQEAQARNQAEAGEPVGDDEDEQLRRALEESQLIYETQTNSSANHGNNTNDEIDEDDEEFLRAIRQSRVEDERRRHLRNHTTGRRNGPLSDDNFATYGAAESSERTSTENTIGSSVGVDASNNVDEDLQLAIALSLSEIN
B2: Ddi1 86-325 (helical domains + protease) (domain or fragment, UniProt P40087 86-325)
chain: ATLSDEAFIEQFRQELLNNQMLRSQLILQIPGLNDLVNDPLLFRERLGPLILQRRYGGYNTAMNPFGIPQDEYTRLMANPDDPDNKKRIAELLDQQAIDEQLRNAIEYTPEMFTQVPMLYINIEINNYPVKAFVDTGAQTTIMSTRLAKKTGLSRMIDKRFIGEARGVGTGKIIGRIHQAQVKIETQYIPCSFTVLDTDIDVLIGLDMLKRHLACVDLKENVLRIAEVETSFLSEAEIPK

Molecular target: T1, Ddi1 UBL with an N-terminal His-tag (residues 1-80) (S. cerevisiae) (UniProt P40087)
T1 sequence (chain, 15N-labelled): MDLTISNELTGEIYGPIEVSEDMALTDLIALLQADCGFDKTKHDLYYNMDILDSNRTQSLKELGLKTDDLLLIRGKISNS
Test: NMR titration; 0.2 mM 15N-labeled Ddi1 UBL, 2D 15N/1H HSQC, two-fold molar excess (0.4 mM) of ligand added; 50 mM sodium phosphate, pH 7.4, 0.5% glycerol, 25 °C; minimal shift approach; both purified

Binder | binding
B1 | no binding (tested: 0.4 mM (two-fold molar excess))
B2 | no binding (tested: 0.4 mM (two-fold molar excess))
RTFPEQTIKQLMDLGFPRDAVVKALKQTNGNAEFAASLLFQ (domain or fragment, UniProt P40087 388-428) [Ddi1 388-428 (UBA)] | no binding (tested: 0.4 mM (two-fold molar excess))
GDTDEENDIQLRIALLESQEAQARNQAE (peptide, UniProt Q04511 512-539) [Yeast Ufo1 UIM1 (512-539)] | no binding (tested: 0.4 mM (two-fold molar excess))
EPVGDDEDEQLRRALEESQLIYETQTNS (peptide, UniProt Q04511 542-569) [Yeast Ufo1 UIM2 (542-569)] | no binding (tested: 0.4 mM (two-fold molar excess))
TNDEIDEDDEEFLRAIRQSRVEDERRRHLRNH (peptide, UniProt Q04511 577-608) [Yeast Ufo1 UIM3 (577-608)] | no binding
NVDEDLQLAIALSLSEIN (peptide, UniProt Q04511 651-668) [Ufo1 UIM4 (651-668)] | no binding (tested: 0.4 mM (two-fold molar excess))
